This is a selection; strong and weak results do not stand in their true shares.
These targets were tested with COC(=O)C#Cc1ccccc1 [methyl 3-phenylpropiolate] (assay: log2 ratio of iodoacetamide-alkyne labeling of the cysteine site, DMSO over compound (competition); higher = stronger covalent engagement of the cysteine by the compound, active = 1 or more). Conditions: 500 µM; treatment time 1 h; system: HEK293T cell lysate.
In short: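 After 1 h at ambient temperature with vehicle or electrophile (500 µM), HEK293T lysate (2 mg/mL) was labelled for 1 h with iodoacetamide alkyne and clicked to sCIP-TMT reagents. Pooled samples were trypsin-digested overnight at 37 °C, streptavidin-enriched, acid-eluted and analysed by Orbitrap Eclipse LC-MS/MS with FAIMS, then quantified in FragPipe over three replicates with duplicate channels. A cysteine's log2 competition ratio is its mean control-channel over mean compound-channel reporter intensity. Cysteines quantified in only one replicate were not included.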

By UniProt entry, the sequences of proteins in these tests, tags left out. Where a name states a change or a piece, a line headed by the entry shows the natural chain unless it says otherwise.
UniProt Q8IYB7: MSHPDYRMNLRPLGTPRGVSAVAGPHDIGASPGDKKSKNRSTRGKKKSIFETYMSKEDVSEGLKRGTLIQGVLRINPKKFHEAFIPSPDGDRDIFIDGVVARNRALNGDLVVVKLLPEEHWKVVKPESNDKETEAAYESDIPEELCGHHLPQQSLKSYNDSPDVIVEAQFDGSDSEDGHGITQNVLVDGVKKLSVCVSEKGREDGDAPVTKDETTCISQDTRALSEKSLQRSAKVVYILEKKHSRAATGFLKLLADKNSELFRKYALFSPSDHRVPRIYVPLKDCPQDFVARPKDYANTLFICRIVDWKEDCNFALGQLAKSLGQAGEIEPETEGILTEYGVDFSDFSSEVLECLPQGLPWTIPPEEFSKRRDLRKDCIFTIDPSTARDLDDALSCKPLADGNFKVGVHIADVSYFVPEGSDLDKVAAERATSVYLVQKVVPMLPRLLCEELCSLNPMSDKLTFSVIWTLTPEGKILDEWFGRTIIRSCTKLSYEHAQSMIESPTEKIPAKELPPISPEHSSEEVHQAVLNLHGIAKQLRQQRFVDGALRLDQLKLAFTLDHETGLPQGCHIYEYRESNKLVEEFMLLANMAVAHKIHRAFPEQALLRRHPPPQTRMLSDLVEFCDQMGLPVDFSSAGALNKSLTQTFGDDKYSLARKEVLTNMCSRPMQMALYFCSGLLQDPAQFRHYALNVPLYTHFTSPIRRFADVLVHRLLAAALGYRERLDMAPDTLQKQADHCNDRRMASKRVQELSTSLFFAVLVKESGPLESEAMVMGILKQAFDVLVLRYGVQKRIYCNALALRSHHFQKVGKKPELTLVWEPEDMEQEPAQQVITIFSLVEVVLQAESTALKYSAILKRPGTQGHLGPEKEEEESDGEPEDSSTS
UniProt Q86TG7: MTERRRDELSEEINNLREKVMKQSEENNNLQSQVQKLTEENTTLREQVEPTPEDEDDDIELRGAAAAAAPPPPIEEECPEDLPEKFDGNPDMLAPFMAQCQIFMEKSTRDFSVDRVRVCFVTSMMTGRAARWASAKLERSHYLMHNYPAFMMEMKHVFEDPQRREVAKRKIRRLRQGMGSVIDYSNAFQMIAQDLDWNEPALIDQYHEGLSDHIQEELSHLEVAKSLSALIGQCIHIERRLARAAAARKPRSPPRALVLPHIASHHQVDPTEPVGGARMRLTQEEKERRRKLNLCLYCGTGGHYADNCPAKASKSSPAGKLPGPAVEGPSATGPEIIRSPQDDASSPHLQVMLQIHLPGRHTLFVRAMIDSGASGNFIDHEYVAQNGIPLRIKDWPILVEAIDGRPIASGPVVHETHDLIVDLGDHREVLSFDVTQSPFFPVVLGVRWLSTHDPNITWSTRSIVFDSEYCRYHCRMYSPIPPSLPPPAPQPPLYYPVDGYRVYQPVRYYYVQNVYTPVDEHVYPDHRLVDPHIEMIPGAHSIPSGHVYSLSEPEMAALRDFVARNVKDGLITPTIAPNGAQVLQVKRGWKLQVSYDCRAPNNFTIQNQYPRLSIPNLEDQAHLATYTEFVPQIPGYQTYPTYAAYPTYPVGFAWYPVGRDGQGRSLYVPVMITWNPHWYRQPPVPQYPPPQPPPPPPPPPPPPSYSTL
UniProt Q7RTV0, whole entry, looked up: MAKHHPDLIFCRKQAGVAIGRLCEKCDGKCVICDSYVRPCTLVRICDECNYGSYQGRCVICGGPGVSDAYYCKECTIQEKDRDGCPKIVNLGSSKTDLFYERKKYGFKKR
UniProt Q7L2E3: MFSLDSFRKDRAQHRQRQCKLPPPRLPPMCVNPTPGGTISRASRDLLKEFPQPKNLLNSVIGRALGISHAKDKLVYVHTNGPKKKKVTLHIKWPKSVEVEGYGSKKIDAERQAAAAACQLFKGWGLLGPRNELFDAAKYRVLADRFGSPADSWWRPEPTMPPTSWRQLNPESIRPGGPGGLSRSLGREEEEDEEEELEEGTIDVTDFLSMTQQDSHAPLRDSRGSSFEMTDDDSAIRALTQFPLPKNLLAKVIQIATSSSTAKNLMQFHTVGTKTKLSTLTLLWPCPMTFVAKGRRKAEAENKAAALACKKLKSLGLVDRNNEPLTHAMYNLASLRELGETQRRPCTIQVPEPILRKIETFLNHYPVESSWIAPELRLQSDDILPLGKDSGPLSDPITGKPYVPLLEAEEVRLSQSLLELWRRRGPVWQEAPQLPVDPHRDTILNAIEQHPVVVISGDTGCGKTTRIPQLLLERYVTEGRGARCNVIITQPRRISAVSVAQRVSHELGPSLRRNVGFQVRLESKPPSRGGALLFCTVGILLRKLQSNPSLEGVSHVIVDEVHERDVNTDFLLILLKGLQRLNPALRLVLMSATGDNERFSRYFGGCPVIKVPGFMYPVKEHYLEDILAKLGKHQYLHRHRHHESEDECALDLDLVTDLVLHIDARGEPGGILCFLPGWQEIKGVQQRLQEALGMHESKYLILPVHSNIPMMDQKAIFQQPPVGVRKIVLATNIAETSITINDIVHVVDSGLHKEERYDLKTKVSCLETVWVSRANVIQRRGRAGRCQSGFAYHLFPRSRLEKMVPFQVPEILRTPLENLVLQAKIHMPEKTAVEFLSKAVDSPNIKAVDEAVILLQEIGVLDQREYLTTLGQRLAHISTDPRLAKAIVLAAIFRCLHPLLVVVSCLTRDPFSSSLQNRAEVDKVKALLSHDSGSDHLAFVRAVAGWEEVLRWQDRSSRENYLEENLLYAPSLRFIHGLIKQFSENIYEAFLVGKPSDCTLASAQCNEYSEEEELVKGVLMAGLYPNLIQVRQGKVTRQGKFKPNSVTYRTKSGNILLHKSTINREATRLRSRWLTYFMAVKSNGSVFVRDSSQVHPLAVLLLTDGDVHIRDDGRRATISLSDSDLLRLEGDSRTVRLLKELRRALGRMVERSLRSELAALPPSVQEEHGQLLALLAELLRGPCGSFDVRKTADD
UniProt Q8IWS0: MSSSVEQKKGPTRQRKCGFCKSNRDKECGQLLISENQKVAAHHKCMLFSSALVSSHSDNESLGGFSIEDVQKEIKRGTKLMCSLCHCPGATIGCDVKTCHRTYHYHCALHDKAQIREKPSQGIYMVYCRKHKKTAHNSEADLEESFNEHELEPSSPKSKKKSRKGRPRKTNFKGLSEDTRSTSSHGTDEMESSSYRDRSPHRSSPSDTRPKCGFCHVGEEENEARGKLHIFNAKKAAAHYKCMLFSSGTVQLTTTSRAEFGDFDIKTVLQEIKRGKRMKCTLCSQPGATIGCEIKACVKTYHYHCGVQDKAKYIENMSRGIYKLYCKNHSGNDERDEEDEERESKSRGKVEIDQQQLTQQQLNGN
UniProt Q8IX12: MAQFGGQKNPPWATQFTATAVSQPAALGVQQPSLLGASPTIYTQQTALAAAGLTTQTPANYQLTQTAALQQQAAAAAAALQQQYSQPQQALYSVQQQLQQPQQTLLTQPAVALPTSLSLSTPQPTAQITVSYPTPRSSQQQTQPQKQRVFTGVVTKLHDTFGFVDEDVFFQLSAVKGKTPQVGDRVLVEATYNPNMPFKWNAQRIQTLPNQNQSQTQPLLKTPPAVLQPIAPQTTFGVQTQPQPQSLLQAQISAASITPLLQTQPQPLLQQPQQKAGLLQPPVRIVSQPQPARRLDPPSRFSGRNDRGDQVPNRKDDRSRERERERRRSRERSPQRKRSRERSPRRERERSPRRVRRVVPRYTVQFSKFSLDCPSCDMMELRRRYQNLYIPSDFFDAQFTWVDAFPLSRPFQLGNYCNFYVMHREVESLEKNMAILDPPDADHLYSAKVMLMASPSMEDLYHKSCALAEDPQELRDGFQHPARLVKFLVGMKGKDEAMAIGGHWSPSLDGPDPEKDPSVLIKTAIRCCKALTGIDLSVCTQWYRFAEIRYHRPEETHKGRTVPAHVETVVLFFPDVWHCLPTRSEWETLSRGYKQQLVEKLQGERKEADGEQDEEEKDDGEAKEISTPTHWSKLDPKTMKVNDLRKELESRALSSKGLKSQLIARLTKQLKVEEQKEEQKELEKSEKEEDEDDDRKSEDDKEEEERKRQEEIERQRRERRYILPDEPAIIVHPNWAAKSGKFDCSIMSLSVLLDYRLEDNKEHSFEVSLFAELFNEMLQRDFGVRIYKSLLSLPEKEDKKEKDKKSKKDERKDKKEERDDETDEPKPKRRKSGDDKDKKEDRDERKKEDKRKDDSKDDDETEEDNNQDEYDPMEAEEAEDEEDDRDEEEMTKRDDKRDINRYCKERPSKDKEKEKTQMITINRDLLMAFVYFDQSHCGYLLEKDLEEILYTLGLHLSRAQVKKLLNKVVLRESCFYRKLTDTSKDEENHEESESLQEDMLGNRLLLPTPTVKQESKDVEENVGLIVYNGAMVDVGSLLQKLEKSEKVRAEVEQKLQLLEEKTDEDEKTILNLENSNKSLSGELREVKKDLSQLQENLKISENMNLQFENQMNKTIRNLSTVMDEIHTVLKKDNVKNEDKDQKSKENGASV
UniProt Q8IYD1, whole entry: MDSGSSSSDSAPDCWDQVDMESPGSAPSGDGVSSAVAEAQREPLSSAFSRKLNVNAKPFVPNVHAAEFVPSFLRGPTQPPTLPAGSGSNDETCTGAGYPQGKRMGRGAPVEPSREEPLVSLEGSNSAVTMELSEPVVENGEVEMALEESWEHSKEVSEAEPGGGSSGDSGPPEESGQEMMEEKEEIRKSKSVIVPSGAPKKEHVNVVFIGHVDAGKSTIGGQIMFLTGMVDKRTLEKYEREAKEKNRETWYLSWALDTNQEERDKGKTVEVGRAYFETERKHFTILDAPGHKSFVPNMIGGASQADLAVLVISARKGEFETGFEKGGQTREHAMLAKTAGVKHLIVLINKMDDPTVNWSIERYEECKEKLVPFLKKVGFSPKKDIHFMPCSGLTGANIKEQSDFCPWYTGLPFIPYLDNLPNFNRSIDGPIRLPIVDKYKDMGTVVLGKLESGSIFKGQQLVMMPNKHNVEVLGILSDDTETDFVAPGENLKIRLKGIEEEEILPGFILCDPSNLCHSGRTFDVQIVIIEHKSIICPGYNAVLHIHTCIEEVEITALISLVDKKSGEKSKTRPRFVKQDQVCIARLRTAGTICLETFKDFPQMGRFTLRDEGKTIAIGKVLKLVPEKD
UniProt Q8IX18: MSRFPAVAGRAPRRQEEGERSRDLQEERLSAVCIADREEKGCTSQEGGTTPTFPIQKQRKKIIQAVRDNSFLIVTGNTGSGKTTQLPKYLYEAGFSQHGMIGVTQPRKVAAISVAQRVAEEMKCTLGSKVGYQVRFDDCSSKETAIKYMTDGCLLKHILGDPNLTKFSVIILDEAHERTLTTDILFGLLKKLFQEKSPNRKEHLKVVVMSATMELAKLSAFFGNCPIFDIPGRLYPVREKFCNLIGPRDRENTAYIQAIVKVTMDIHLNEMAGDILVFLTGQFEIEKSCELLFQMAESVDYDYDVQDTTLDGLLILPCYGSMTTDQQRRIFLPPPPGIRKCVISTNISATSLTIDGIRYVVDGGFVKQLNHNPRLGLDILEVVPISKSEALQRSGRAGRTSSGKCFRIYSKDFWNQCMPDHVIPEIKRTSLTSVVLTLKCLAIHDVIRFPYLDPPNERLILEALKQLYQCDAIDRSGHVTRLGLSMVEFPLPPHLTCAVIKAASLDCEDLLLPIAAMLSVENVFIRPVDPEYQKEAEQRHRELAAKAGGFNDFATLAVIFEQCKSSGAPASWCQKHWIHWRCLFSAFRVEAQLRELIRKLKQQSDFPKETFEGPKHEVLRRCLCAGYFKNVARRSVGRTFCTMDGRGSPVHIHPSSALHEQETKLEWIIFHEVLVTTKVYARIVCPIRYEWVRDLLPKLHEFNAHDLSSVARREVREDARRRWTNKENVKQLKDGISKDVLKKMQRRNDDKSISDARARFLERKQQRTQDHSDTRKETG
UniProt Q7Z3B4: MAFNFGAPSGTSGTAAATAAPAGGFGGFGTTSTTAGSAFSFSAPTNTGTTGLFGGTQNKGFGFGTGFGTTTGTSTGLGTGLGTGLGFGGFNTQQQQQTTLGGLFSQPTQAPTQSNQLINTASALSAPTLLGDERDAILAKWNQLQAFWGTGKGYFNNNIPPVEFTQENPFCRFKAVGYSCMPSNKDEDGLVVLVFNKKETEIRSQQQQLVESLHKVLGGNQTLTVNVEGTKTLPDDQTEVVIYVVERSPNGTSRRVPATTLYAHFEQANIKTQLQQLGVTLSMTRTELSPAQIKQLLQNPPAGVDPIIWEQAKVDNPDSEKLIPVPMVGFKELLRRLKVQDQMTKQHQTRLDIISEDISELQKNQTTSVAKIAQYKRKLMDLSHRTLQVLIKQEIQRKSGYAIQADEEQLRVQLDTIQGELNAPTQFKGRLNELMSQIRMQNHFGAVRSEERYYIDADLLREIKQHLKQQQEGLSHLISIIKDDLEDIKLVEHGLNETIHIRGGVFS

| Target | log2 ratio of iodoacetamide-alkyne labeling |
| --- | --- |
| ZC3HAV1 C645 (UniProt Q7Z2W4) | inactive: 0.634 |
| DCP2 C158 (UniProt Q8IU60) | inactive: 0.0851 |
| DIS3L2 C216 (UniProt Q8IYB7) | inactive: 0.561 |
| PEG10 C119 (UniProt Q86TG7) | inactive: 0.397 |
| WDFY1 C290 (UniProt Q8IWB7) | inactive: -0.103 |
| UniProt Q7RTV0_C11 | inactive: -0.0735 |
| UniProt Q7Z5K2_C251 | inactive: 0.11 |
| MEPCE C429 (UniProt Q7L2J0) | inactive: 0.486 |
| UniProt Q7Z434_C46 | inactive: -0.391 |
| DHX30 C484 (UniProt Q7L2E3) | inactive: 0.24 |
| CCDC50 C85 (UniProt Q8IVM0) | inactive: 0.455 |
| SUPT6H C1198 (UniProt Q7KZ85) | inactive: -0.0405 |
| PHF6 C280 (UniProt Q8IWS0) | inactive: -0.0965 |
| CCAR1 C579 (UniProt Q8IX12) | inactive: 0.0854 |
| GSPT2 C93 (UniProt Q8IYD1) | inactive: 0.616 |
| CKAP2L C124 (UniProt Q8IYA6) | inactive: 0.747 |
| HEATR3 C655 (UniProt Q7Z4Q2) | inactive: 0.102 |
| DHX40 C33 (UniProt Q8IX18) | inactive: 0.451 |
| SLFN11 C6 (UniProt Q7Z7L1) | inactive: 0.329 |
| FTSJ3 C197 (UniProt Q8IY81) | inactive: 0.103 |
| NUP54 C180 (UniProt Q7Z3B4) | inactive: 0.361 |
| ZC3HAV1 C219 (UniProt Q7Z2W4) | inactive: 0.305 |

Retrieved one by one from the list above (two):

| Target | log2 ratio of iodoacetamide-alkyne labeling |
| --- | --- |
| UniProt Q7RTV0_C11 | inactive: -0.0735 |
| SUPT6H C1198 (UniProt Q7KZ85) | inactive: -0.0405 |
